Results taken from PubChem BioAssay AID540276 (National Center for Advancing Translational Sciences (NCATS), 2011).
Among all 300,000 compounds or so, about 5,400 (1.8%) were called active. The shares of active, inactive and inconclusive entries below differ from those in the screen. Calls come from the whole dose curve; tested in HEK293 cells. Potencies of inconclusive entries are doubtful fits and often do not repeat.

Experiment: qHTS for inhibitors of binding or entry into cells for Marburg Virus
Conditions: Marburg virus pseudotyped entry inhibition, cell reporter; series mostly up to 37.8 µM
Potency is the fitted concentration of half-maximal effect.

Which Potency does the source give for `COc1cc(/C=C2\SC(=O)N(Cc3ccc(Cl)cc3)C2=O)cc([N+](=O)[O-])c1O` here?
Its Potency is inconclusive: 35.5 µM [inhibitor, partial curve, poor fit].

Which Potency does the source give for `CCOC(=O)c1c(C)[nH]c(C)c1C(=O)COc1ncnc2cc([N+](=O)[O-])ccc12` here?
Its Potency is inconclusive: 22.4 µM [inhibitor, single point].

With `CCOc1ccccc1NC(=O)CN1CCC(C(=O)c2ccc(OC)cc2)CC1` as the compound, how does the Potency read?
The Potency was inconclusive: 7.94 µM [inhibitor, partial curve, poor fit].

For `CN1/C(=C\P(=O)(N(C)C)N(C)C)C(C)(C)c2ccccc21`, which Potency is on record?
The Potency was inconclusive: 23.1 µM [inhibitor, partial curve, poor fit].

With `Brc1ccc(-c2nnc(-c3cccnc3)o2)cc1` as the compound, how does the Potency read?
Its Potency is “inactive”.

For `COc1cc(C)ccc1OCCCn1c(-c2ccc(Cl)cc2)nc2ccccc2c1=O`, which Potency is on record?
The Potency was “inactive”.

Which Potency does the source give for `Cc1ccc(NC(=O)CC2SC3=NCCN3C2=O)cc1` (configuration not stated) here?
Its Potency is “inactive”.

For `Cc1ccc(C2(C(F)(F)F)NC(=O)N3C(=C2C#N)Nc2ccccc23)cc1` (configuration not stated), which Potency is on record?
The Potency was “inactive”.

Which Potency does the source give for `CC(=O)c1ccc(NC(=O)C(C)OC(=O)/C=C/c2ccco2)cc1` (configuration not stated) here?
Its Potency is active: 11.2 µM.

For `O=C(CN(C(=O)c1csnn1)c1ccc(F)c(Cl)c1)NCc1ccccc1`, which Potency is on record?
The Potency was inconclusive: 35.5 µM [inhibitor, single point].

For `Cc1cccn2c(=O)c(C(=O)NCc3ccccc3Cl)c(O)nc12`, which Potency is on record?
Its Potency is “inactive”.

For `O=C(NCCc1ccncc1)Nc1ccccc1`, which Potency is on record?
Its Potency is inconclusive: 31.6 µM [activator, single point].

With `Oc1ccc(C=Nc2cccc3ncccc23)c(O)c1` as the compound, how does the Potency read?
Its Potency is “inactive”.

Which Potency does the source give for `CCn1cc(CN2CCN(Cc3ccccc3)C(CCO)C2)c2ccccc21` (configuration not stated) here?
The Potency was inconclusive: 7.08 µM [inhibitor, partial curve, poor fit].

With `COc1ccc(-c2noc(-c3ccc(N4CCN(c5ccc(OC)cc5)CC4)c([N+](=O)[O-])c3)n2)cc1` as the compound, how does the Potency read?
The Potency was inconclusive: 28.2 µM [activator, single point].

For `CCOc1ccc(-n2nc(CO)c(C(=O)NCc3cccnc3)n2)cc1`, which Potency is on record?
Its Potency is inconclusive: 11.2 µM [inhibitor, partial curve, poor fit].

For `NC(=O)C1CCN(C(=O)c2cccc(CN3C(=O)c4ccccc4C3=O)c2)CC1`, which Potency is on record?
The Potency was inconclusive: 22.4 µM [activator, single point].

For `COc1ccc(C(=O)NCC2OCCc3ccccc32)cc1` (configuration not stated), which Potency is on record?
The Potency was inconclusive: 35.5 µM [activator, single point].

Which Potency does the source give for `COc1cc(NC(=O)Cc2nn(C)c(=O)c3ccccc23)cc(OC)c1OC` here?
Its Potency is “inactive”.

Which Potency does the source give for `C[C@H]1Cc2c(COc3ccccc3)nc3c(c2CO1)CN(C(=O)C1CCCCC1)CC3` here?
Its Potency is “inactive”.

For `CN1CCC2(CC1)N=C(c1ccc(F)cc1)C(=S)N2`, which Potency is on record?
The Potency was inconclusive: 35.5 µM [inhibitor, single point].

For `ON1C2CCCCC2N(O)C1c1c(F)c(F)c(F)c(F)c1F` (configuration not stated), which Potency is on record?
Its Potency is inconclusive: 22.4 µM [inhibitor, single point].

Which Potency does the source give for `CCc1nn(CC(=O)NC(C)CC)c(=O)c2cc3c(OC)cccc3n12` (configuration not stated) here?
The Potency was “inactive”.

With `CCn1nc(NC(C)=O)c2cc3ccc(C)cc3nc21` as the compound, how does the Potency read?
Its Potency is inconclusive: 25.1 µM [activator, single point].

For `CCN(CC)S(=O)(=O)c1ccc(N(C)Cc2ccc(C(F)(F)F)cc2)nc1`, which Potency is on record?
Its Potency is inconclusive: 35.5 µM [inhibitor, single point].

For `CCC(C)(C)n1nnnc1C(c1cccc(C#N)c1)N1CCN(c2cc(C)ccc2C)CC1` (configuration not stated), which Potency is on record?
The Potency was active: 2.91 µM.

With `COc1nc2ccc(C)cc2cc1-c1noc(-c2cccnc2)n1` as the compound, how does the Potency read?
Its Potency is inconclusive: 1.12 µM [activator, partial curve, poor fit].

Which Potency does the source give for `CC(C)Cn1c(N)c(C(=O)CSc2ncnc3sc4c(c23)CCCC4)c(=O)n(C)c1=O` here?
The Potency was inconclusive: 35.5 µM [inhibitor, single point].

Which Potency does the source give for `COc1ccc(C2=NO[C@@H]3C(=O)N(Cc4ccccc4)C(=O)[C@H]23)c(OC)c1` here?
The Potency was inconclusive: 3.55 µM [activator, single point].

Which Potency does the source give for `Cc1nn(Cc2ccccc2)c(C)c1NC(=O)CSc1nc2c(c(C(F)(F)F)n1)CCc1ccccc1-2` here?
Its Potency is inconclusive: 2.82 µM [inhibitor, partial curve, poor fit].

Which Potency does the source give for `CC(C)S(=O)(=O)c1oc(-c2ccc(F)cc2)nc1S(=O)(=O)c1ccccc1` here?
The Potency was inconclusive: 2.51 µM [inhibitor, full curve, poor fit].

Which Potency does the source give for `Cc1csc(NC(=O)c2ccco2)n1` here?
The Potency was inconclusive: 35.5 µM [inhibitor, single point].

With `CCOC(=O)C1(Cc2ccccc2)CCCCCC1=O` (configuration not stated) as the compound, how does the Potency read?
Its Potency is “inactive”.

For `c1ccc2c(c1)-c1ccccc1C2N1CCOCC1`, which Potency is on record?
Its Potency is “inactive”.

For `CCN1C(=O)c2cccc3c(S(=O)(=O)Nc4ccccc4O)ccc1c23`, which Potency is on record?
Its Potency is inconclusive: 15.8 µM [inhibitor, single point].

With `Cc1ccc(-c2ccc(/C=N/n3cnnc3)o2)cc1` as the compound, how does the Potency read?
Its Potency is inconclusive: 22.4 µM [inhibitor, single point].

For `CCc1cc(C(=O)NNC(=S)Nc2ccccc2C)cs1`, which Potency is on record?
Its Potency is inconclusive: 0.517 µM [activator, full curve, poor fit].

For `CCCCCCCCCCCCCC(=O)O[C@@H]1[C@@H](C)[C@@]2(O)[C@@H](C=C(CO)C[C@@]3(O)C(=O)C(C)=C[C@@H]23)C2C(C)(C)[C@@]21OC(C)=O` (some centres not stated), which Potency is on record?
Its Potency is active: 22.4 µM.

Which Potency does the source give for `COc1ccc(CCN2C(=O)c3[nH]nc(-c4ccccc4O)c3C2c2cccc(OC)c2)cc1` (configuration not stated) here?
Its Potency is active: 12.6 µM.

Which Potency does the source give for `CC(=O)Nc1cc2c(cc1NC(=O)Cn1nc(-c3ccccc3F)ccc1=O)OCCO2` here?
The Potency was “inactive”.

Which Potency does the source give for `CCN1CCN(c2ccc(S(=O)(=O)N3CCCCC3)cc2NC(=O)c2cccc(C)c2[N+](=O)[O-])CC1` here?
The Potency was inconclusive: 22.4 µM [inhibitor, partial curve, poor fit].

For `COc1ccccc1CNC(=O)c1ccccc1OCc1ccc(F)cc1`, which Potency is on record?
Its Potency is inconclusive: 14.1 µM [inhibitor, single point].

With `O=C(c1cccc(Cl)c1)N1CCCC(C(=O)N2CCN(c3ccccc3)CC2)C1` (configuration not stated) as the compound, how does the Potency read?
The Potency was inconclusive: 0.631 µM [activator, single point].

With `C=CCn1c(SCC(=O)NCc2ccc3c(c2)OCO3)nc2scc(-c3ccccc3)c2c1=O` as the compound, how does the Potency read?
Its Potency is inconclusive: 17.8 µM [inhibitor, single point].

Which Potency does the source give for `CCN(CC)c1ccc(N2C(=O)/C(=C\c3cccs3)SC2=S)cc1` here?
The Potency was inconclusive: 15.8 µM [activator, single point].

With `CCOC(=O)CN(C(=O)CSc1nnc(-c2ccncc2)n1CCCN(C)C)c1ccccc1` as the compound, how does the Potency read?
Its Potency is “inactive”.

With `O=C(Nc1ccccn1)C1CCN(S(=O)(=O)c2cccc3nonc23)CC1` as the compound, how does the Potency read?
Its Potency is inconclusive: 1 µM [activator, full curve].

For `COc1ccccc1N(CC(=O)NCc1ccc(F)cc1)C(=O)CCC(=O)Nc1nccs1`, which Potency is on record?
The Potency was inconclusive: 11.2 µM [inhibitor, partial curve, poor fit].

For `CC(=O)Nc1cccc(NC(=O)c2ccc(C)c([N+](=O)[O-])c2)c1`, which Potency is on record?
The Potency was “inactive”.

For `Cc1cc(C)c(S(=O)(=O)N2CCCCC2)c(C)c1N(C)S(=O)(=O)c1ccc(Cl)cc1`, which Potency is on record?
Its Potency is inconclusive: 10 µM [inhibitor, partial curve, poor fit].

For `O=C(O)CNS(=O)(=O)c1ccc2c3c(cccc13)C(=O)N2`, which Potency is on record?
Its Potency is inconclusive: 3.55 µM [activator, single point].

With `Cc1ccccc1-c1nc2cc(NC(=O)C3CC3)ccc2o1` as the compound, how does the Potency read?
Its Potency is inconclusive: 25.1 µM [inhibitor, single point].

For `CC(=O)c1cccc(NC(=O)c2c(-c3ccccc3)c(-c3ccccc3)nn(C)c2=O)c1`, which Potency is on record?
Its Potency is inconclusive: 11.2 µM [inhibitor, partial curve, poor fit].

For `Cc1nc(N2CCN(Cc3ccc4c(c3)OCO4)CC2)nc2c1C(=O)CC(c1ccco1)C2` (configuration not stated), which Potency is on record?
Its Potency is inconclusive: 6.51 µM [inhibitor, single point].

For `Cc1cc(F)ccc1-n1nnc(C(N)=O)c1C`, which Potency is on record?
Its Potency is “inactive”.

For `Cc1ccc(-c2csc(NC(=O)c3ccc(Br)cc3)c2C(=O)O)cc1`, which Potency is on record?
The Potency was active: 1.26 µM.

With `O=C(c1ccccc1Cl)N(Cc1ccco1)Cc1ccco1` as the compound, how does the Potency read?
The Potency was inconclusive: 0.891 µM [inhibitor, full curve, poor fit].

Which Potency does the source give for `CC1(c2ccccc2)NC(=O)N(CC(=O)Nc2nc(-c3ccccn3)cs2)C1=O` (configuration not stated) here?
Its Potency is “inactive”.

Which Potency does the source give for `COc1ccc(/C=N/NC(=O)c2sccc2OCc2ccc(F)cc2)cc1OC` here?
The Potency was inconclusive: 35.5 µM [inhibitor, single point].

Which Potency does the source give for `O=C(COC(=O)C1(c2ccc(Cl)cc2)CCCC1)NCc1ccco1` here?
Its Potency is “inactive”.

For `COc1ccc(Br)cc1CN(C)C(=O)CNC(=O)c1ccc2ccccc2c1`, which Potency is on record?
Its Potency is inconclusive: 10 µM [inhibitor, partial curve, poor fit].

Which Potency does the source give for `Cc1nn(CC2CC2)c(=O)n1-c1cccc(Cl)c1` here?
Its Potency is inconclusive: 6.31 µM [activator, single point].

With `COc1ccc(C2C(C(N)=O)=C(C)Nc3nc(CCCO)nn32)cc1` (configuration not stated) as the compound, how does the Potency read?
Its Potency is inconclusive: 35.5 µM [inhibitor, single point].

With `CC(C)Cn1c2c(c(O)c(C(=O)Nc3nccs3)c1=O)CCCC2` as the compound, how does the Potency read?
Its Potency is “inactive”.

Which Potency does the source give for `C[C@]12CCC(=O)C=C1CCC1C2CC[C@@]2(C)C1CCC21OCCO1` (some centres not stated) here?
Its Potency is inconclusive: 3.55 µM [inhibitor, single point].

With `Cc1cccc(NC(=O)c2sc3nc4c(cc3c2N)CCCCCC4)c1C` as the compound, how does the Potency read?
The Potency was inconclusive: 28.2 µM [inhibitor, partial curve, poor fit].

For `Clc1ccc(OCc2nc3ccccc3[nH]2)cc1`, which Potency is on record?
The Potency was inconclusive: 8.91 µM [inhibitor, partial curve, poor fit].
